The exact form of at least one protein or probe is not confirmed. The comparison behind a weaker result is the experiment's own reference, which may not be listed here. At least one verdict was read from the data and is not stated in words by the source. Where a protein sequence is shown, tags need not be part of it.
Target: T1, CcpA-Met19 (wild type, Genr0) (Lactococcus lactis MG1363 (strain Genr0)) (UniProt A2RJC5)
T1 sequence (looked up, limits assumed): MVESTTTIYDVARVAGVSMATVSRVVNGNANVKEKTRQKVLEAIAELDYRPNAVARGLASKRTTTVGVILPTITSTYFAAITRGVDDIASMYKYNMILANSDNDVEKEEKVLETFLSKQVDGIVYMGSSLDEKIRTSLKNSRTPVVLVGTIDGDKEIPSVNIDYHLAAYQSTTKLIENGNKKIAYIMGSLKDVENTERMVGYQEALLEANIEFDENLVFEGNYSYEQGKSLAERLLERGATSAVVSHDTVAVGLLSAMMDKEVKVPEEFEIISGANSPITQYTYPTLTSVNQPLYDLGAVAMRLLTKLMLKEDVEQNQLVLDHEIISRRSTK
Experiment: EMSA
Conditions: 100-800 nM CcpA, 4 nM DNA, EMSA: 20 mM Tris-HCl pH 8, 100 mM KCl, 10 mM MgCl2, 1 mM EDTA, 1 mM DTT, 5% glycerol, 40 ug/ml BSA, 4 nM Cy3-DNA, 30 C 20 min, 7.5% native PAGE in TBE, recombinant protein, protein details: N-terminal 6xHis (pQE30), label: 5'-Cy3 on (+) strand

Row | Sequence | binding result (lower affinity than Ile19, largest difference) | binding result (lower affinity than Ile19)
1 | AAAAAATAGATAACGCTTGCATTATGAA (double strand) [ptcB cre (F1/R1)] | binds more weakly | –
2 | TTCTTACTGTTAGCGCTTTCAGTACG (double strand) [syn cre (perfect cre site)] | – | binds more weakly

Reference: paper PMC6327505, “Adaption to glucose limitation is modulated by the pleotropic regulator CcpA, independent of selection pressure strength”
